Reference: patent publication US20130210042A1 (CONSIGLIO NAZIONALE DELLE RICERCHE, published 2013)

Target: T1, 20-22 kDa NH2-truncated tau fragment (human, UniProt P10636 26-547)
T1 construct: Endogenous fragment in human synaptosomes, mitochondria, CSF and STS-treated SH-SY5Y cells; Exact limits not proven; also called NH2htau; NH2 htau fragment
Test: co-immunoprecipitation from synaptosomes with CCP-NH2 tau as bait antibody
Description: A): Western blotting comparing synaptosomal proteins (500 μg) from ND, AD (ND, AD) subjects immunoprecipitated (IP) and probed (WB) with CCP—NH₂ tau (NH₂ aa 26-36 of human tau) antiserum. Total proteins extracts (70 μg unbound) from STS-treated (6hSY5Y) neuronal human SY5Y and from AD synaptosomal proteins (INPUT) were also loaded for lane and included as positive internal control of electrophoretic mobility and immunoprecipitation efficiency. It is noteworthy that a NH₂-tau fragment around 20-22 kDa (arrow), but not-full-length proteins running at 55-75 kDa(arrowheads), was efficiently immunoprecipitated by CCP—NH₂ tau antiserum on synaptic-enriched fractions from AD. The asterisk indicate immunoglobulin light chains in immunoprecipitates and no significant cross-reactions with human intact tau iso forms was found in total, un-precipitated proteins. B-F): In C), Western blotting analysis comparing synaptosomal proteins (500 μg) from ND, AD (ND, AD) subjects immunoprecipitated (IP) with CCP—NH₂ tau (NH₂ aa26-36 of human tau) antiserum and probed (WB) with ANT-1 antibody (the least C-terminal 12 amino acids of human neuronal ANT-1). […]
Next the authors analyzed whether ANT-1—the neuronal-specific isoform of ANT protein—was a mitochondrial target of the NH₂htau fragment.

- binding result: no binding
B1: Cyt C (other, human, UniProt P99999 2-105, looked up)
chain: GDVEKGKKIFIMKCSQCHTVEKGGKHKTGPNLHGLFGRKTGQAPGYSYTAANKNKGIIWGEDTLMEYLENPKKYIPGTKMIFVGIKKKEERADLIAYLKKATNE
notes: also called cytochrome c
